In PubChem BioAssay AID493014 (National Center for Advancing Translational Sciences (NCATS), 2011):
This is one part of the list. Further columns of the screen follow, without active or inactive calls. Compounds called inactive in the main read-out are mostly missing here. The note in brackets gives the kind of curve behind each potency; many fits are weak.

Experiment: qHTS Assay to Find Inhibitors of Chronic Active B-Cell Receptor Signaling
Conditions: ABC-DLBCL IkBa-CBG/CBR reporter, luminescence ratio (green luciferase fused to IkBa over red control in TMD8 lymphoma cells), 4 h
Procedure, shortened: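 TMD8 ABC-DLBCL cells carrying doxycycline-inducible green luciferase fused to IkappaBalpha plus unfused red luciferase were exposed to compounds (up to 46 uM) for 4 hrs at 37C. Activity came from the overlap-corrected green/red luminescence ratio.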

[1] = measured here: CBR red luminescence, cell number
[2] = measured here: IkBa-CBG green luminescence

| Compound | AC50 [1] | AC50 [2] |
| --- | --- | --- |
| O=C(Nc1ccccc1)N(CCCN1CCOCC1)Cc1cc2cc3c(cc2[nH]c1=O)OCCO3 | 2.31 µM [falling, full curve, poor fit] |  |
| Fc1ccc(N2CCN(c3cnc4ccccc4n3)CC2)cc1 | 1.78 µM [rising, partial curve, poor fit] |  |
| COC(=O)C1=C(N)OC2=C(C(=O)CCC2)C1c1cccs1 (stereo not drawn) | 29.1 µM [rising, single point] |  |
| CCCCNC(=O)CC(C(=O)N1CCc2ccccc21)n1ccnc1 (stereo not drawn) | 14.6 µM [falling, partial curve, poor fit] |  |
| O=C(N/N=C/c1ccc2c(c1)OCO2)c1ccccn1 | 2.82 µM [falling, full curve] |  |
| O=C(NNC(=O)c1cc(-c2ccccc2)nn1-c1ccccc1)c1ccccc1 | 18.4 µM [rising, partial curve] | 18.4 µM [falling, single point] |
| CCc1sc(C(C2C(=O)CC(C)(C)CC2=O)C2C(=O)CC(C)(C)CC2=O)cc1[N+](=O)[O-] | 35.5 µM [falling, single point] |  |
| NNc1nc(-c2ccccc2)cs1 | 4.47 µM [falling, partial curve] |  |
| CN(CC(=O)Nc1ccccc1C(F)(F)F)C(=O)Cn1c(=O)oc2ccccc21 | 18.4 µM [falling, partial curve, poor fit] |  |
| Cc1oc(S(=O)(=O)N2CCCC2)cc1C(=O)Nc1ccccc1 | 0.251 µM [falling, full curve, poor fit] |  |
| O=C(COC(=O)Cc1ccccc1F)Nc1ccc(SC(F)F)cc1 | 32.6 µM [rising, single point] |  |
| O=C(CNC(=O)c1ccccc1)OCCOc1cccc(Cl)c1 | 23.1 µM [rising, partial curve, poor fit] |  |
| O=C(CCN1C(=O)c2ccccc2S1(=O)=O)NCc1ccc(F)cc1 | 25.9 µM [rising, single point] |  |
| CCOc1ccc2nc(N3CCC(C(=O)Nc4nnc(CC)s4)CC3)sc2c1 | 29.1 µM [falling, partial curve, poor fit] |  |
| Cc1nnc(SCC(=O)N2CCOCC2)c2ccccc12 | 14.1 µM [falling, single point] |  |
| CCOC(=O)CSc1nnnn1-c1cc(OC)ccc1OC | 20 µM [rising, partial curve, poor fit] |  |
| Clc1ccccc1Nc1ncnc2c1nnn2Cc1ccccc1 | 3.98 µM [falling, partial curve, poor fit] |  |
| COc1cc(NC(=O)c2noc3c2CCC3)c(OC)cc1Cl | 6.51 µM [falling, single point] |  |
| Cc1cccc(/N=C/c2c(O)c3ccccc3oc2=O)n1 | 1.84 µM [falling, full curve, poor fit] |  |
| CS(=O)(=O)Nc1cccc(-c2cn3ccccc3n2)c1 | 0.501 µM [rising, full curve, poor fit] |  |
| Cc1cc(C)c2c(c1)/C(=N/NC(=O)c1ccc(O)cc1)CCC2 | 3.55 µM [falling, partial curve] |  |

| Compound | AC50 [1] | AC50 [2] |
| --- | --- | --- |
| O=[N+]([O-])c1ccc(CCNc2cccc3ccccc23)c([N+](=O)[O-])c1 | 32.6 µM [falling, single point] |  |
| Cc1ccc(NC(=O)CSc2nc3ncc(Cl)cc3[nH]2)c(C)c1 | 35.5 µM [falling, single point] |  |
| O=C(/C=C/c1ccc(F)cc1)c1cc(Br)ccc1O | 1.78 µM [rising, full curve, poor fit] |  |
| O=C(C(Cc1ccccc1)NS(=O)(=O)c1cccc2cccnc12)N1CCc2ccccc21 (stereo not drawn) | 6.51 µM [rising, single point] |  |
| CCN(CC)CCCNC(=O)C1CCN(C(=O)c2oc3cc4sc(N(C)C)nc4cc3c2C)CC1 | 31.6 µM [rising, single point] |  |
| NC(=O)C1CCN(CC(O)COc2ccc(-c3ccccc3)cc2)CC1 (stereo not drawn) | 6.31 µM [rising, full curve, poor fit] |  |
| NNC(=O)c1cc(-c2ccccc2)sc1N | 4.47 µM [rising, partial curve, poor fit] |  |
| Cc1cc2cc(C(=O)N3CCc4c([nH]c5ccccc45)C3c3ccccn3)ccc2o1 (stereo not drawn) | 35.5 µM [falling, single point] |  |
| O=C(N/N=C/c1ccc2c(c1)OCO2)c1ccc2c(c1)OCO2 | 1.78 µM [falling, partial curve, poor fit] |  |
| CCOC(=O)c1cccc(NC(=O)c2ccc(NC(=O)c3ccco3)cc2)c1 | 14.1 µM [falling, single point] |  |
| CN(C)c1ccc(N=Nc2nc3ccccc3n2C)cc1 | 0.282 µM [falling, full curve, poor fit] |  |
| Cc1ccc(Nc2nc3ccccc3s2)cc1 | 0.291 µM [rising, full curve] |  |
| COc1ccccc1OCC(=O)Nc1nnc(-c2ccco2)s1 | 4.47 µM [falling, partial curve, poor fit] |  |
| CCOc1ccc(C(=O)Nc2ccc(Cl)cn2)cc1Cl | 2.82 µM [rising, single point] |  |
| O=C1C(Cc2ccc(O)cc2)NC(=S)N1Cc1ccccc1 (stereo not drawn) | 35.5 µM [falling, single point] |  |
| O=C(OCc1c(-c2ccccc2)ncc2ccccc12)c1ccc(Br)cc1 | 6.51 µM [falling, full curve] |  |
| COc1ccc(C(=O)Nc2cccc(-c3nc4ncccc4o3)c2C)cc1 |  | 0.411 µM [rising, partial curve, poor fit] |
| COc1cccc(-c2ccc(NC(=O)C3CCCN(Cc4cnn(C)c4)C3)cc2)c1 (stereo not drawn) | 35.5 µM [falling, single point] |  |
| OCC1CCCCN1C(=S)Nc1cccc(Cl)c1 (stereo not drawn) | 12.6 µM [rising, partial curve] |  |
| Cc1ccc(NC(=O)C(C)N=C2NS(=O)(=O)c3ccccc32)cc1F (stereo not drawn) | 3.98 µM [rising, full curve, poor fit] |  |
| O=C(Cc1ccccc1F)Nc1nc(-c2cccs2)cs1 | 11.2 µM [falling, partial curve] |  |

Looked up by structure from above (three):

| Compound | AC50 [1] | AC50 [2] |
| --- | --- | --- |
| Cc1ccc(NC(=O)C(C)N=C2NS(=O)(=O)c3ccccc32)cc1F (stereo not drawn) | 3.98 µM [rising, full curve, poor fit] |  |
| O=C(N/N=C/c1ccc2c(c1)OCO2)c1ccc2c(c1)OCO2 | 1.78 µM [falling, partial curve, poor fit] |  |
| O=C(NNC(=O)c1cc(-c2ccccc2)nn1-c1ccccc1)c1ccccc1 | 18.4 µM [rising, partial curve] | 18.4 µM [falling, single point] |
